Assay results published in publication PMC10397291, “Molecular pathway and structural mechanism of human oncochannel TRPV6 inhibition by the phytocannabinoid tetrahydrocannabivarin” (Nature Communications, 2023).
Several values for one entry are separate records, joined by “and”; a condition that tells them apart may be missing. Equal values may be shown once. The source gives many values for each of these; only a part stands here.

Assays:
wild-type human TRPV6 = target: T1, wild-type human TRPV6 (Homo sapiens, UniProt Q9H1D0); assay: Fura-2 AM Ca2+ uptake, HEK 293 cells expressing wild-type hTRPV6; assay type: cell-based; conditions: replicates
T1 construct: Full-length wild-type or mutant human TRPV6 was expressed in HEK 293S cells as described above; expressed in transfected cells; host or cells: HEK 293S GnTI- (baculovirus/BacMam transduction)
T1 sequence (Q9H1D0 41-765 limits assumed): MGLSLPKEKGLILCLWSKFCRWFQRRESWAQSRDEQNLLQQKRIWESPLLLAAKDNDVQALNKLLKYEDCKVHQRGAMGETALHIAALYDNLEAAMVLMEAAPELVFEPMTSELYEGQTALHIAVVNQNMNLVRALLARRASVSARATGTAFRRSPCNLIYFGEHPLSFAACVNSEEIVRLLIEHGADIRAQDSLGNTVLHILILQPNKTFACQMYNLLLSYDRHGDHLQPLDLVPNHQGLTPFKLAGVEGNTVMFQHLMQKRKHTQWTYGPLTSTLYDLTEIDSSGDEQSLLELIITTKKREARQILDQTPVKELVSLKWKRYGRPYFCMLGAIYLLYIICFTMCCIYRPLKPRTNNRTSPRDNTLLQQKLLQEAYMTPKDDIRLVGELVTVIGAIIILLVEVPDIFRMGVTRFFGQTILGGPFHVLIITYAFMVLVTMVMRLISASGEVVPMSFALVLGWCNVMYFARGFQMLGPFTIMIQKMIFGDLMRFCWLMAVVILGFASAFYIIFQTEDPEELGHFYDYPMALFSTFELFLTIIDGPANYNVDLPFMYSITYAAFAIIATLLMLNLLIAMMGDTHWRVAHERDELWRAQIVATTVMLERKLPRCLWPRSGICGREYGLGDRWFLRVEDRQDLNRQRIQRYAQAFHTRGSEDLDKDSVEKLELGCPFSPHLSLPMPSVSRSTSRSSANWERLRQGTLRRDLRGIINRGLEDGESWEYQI

[1] = tested on: non-transfected HEK293 cells; assay: Fura-2 AM measurements in non-transfected cells (Control, non-specific effects); assay type: cell-based

CCCc1cc(O)c2c(c1)OC(C)(C)[C@@H]1CCC(C)=C[C@@H]21 [THCV, tetrahydrocannabivarin]
change in F340/F380 evoked by 10 mM Ca2+ (wild-type human TRPV6; 1 μM THCV): 1.268 and 1.152 and 1.011 and 1.118 and 1.346 and 1.255 and 1.073 and 1.022 | change in F340/F380 evoked by 10 mM Ca2+ (wild-type human TRPV6; 3 μM THCV): 1.088 and 0.960 and 1.092 and 0.943 and 1.007 and 0.968 and 1.270 and 1.029 | change in F340/F380 evoked by 10 mM Ca2+ (wild-type human TRPV6; 10 μM THCV): 0.920 and 0.921 and 0.747 and 0.702 and 0.644 and 0.633 and 0.626 and 0.483 | change in F340/F380 evoked by 10 mM Ca2+ (wild-type human TRPV6; 30 μM THCV): 0.494 and 0.873 and 0.771 (2×) and 0.583 and 0.499 and 0.373 and 0.425 | change in F340/F380 evoked by 10 mM Ca2+ (wild-type human TRPV6; 100 μM THCV): 0.518 and 0.516 and 0.542 and 0.454 and 0.618 and 0.579 and 0.676 and 0.612 | change in F340/F380 evoked by 10 mM Ca2+ ([1]; 1 μM THCV, non-transfected Control for F493A): 0.177 and 0.148 and 0.173 and 0.180 | change in F340/F380 evoked by 10 mM Ca2+ ([1]; 1 μM THCV, non-transfected Control for I564A): 0.142 and 0.121 and 0.188 and 0.131 | change in F340/F380 evoked by 10 mM Ca2+ ([1]; 1 μM THCV, non-transfected Control for M497A): 0.253 and 0.181 and 0.151 and 0.184 | change in F340/F380 evoked by 10 mM Ca2+ ([1]; 1 μM THCV, non-transfected Control for T567A): 0.212 and 0.210 and 0.218 and 0.248 | change in F340/F380 evoked by 10 mM Ca2+ ([1]; 3 μM THCV, non-transfected Control for F493A): 0.206 and 0.180 and 0.160 and 0.193 | change in F340/F380 evoked by 10 mM Ca2+ ([1]; 3 μM THCV, non-transfected Control for I564A): 0.120 and 0.123 and 0.142 and 0.146 | change in F340/F380 evoked by 10 mM Ca2+ ([1]; 3 μM THCV, non-transfected Control for M497A): 0.184 and 0.186 and 0.156 and 0.161 | change in F340/F380 evoked by 10 mM Ca2+ ([1]; 3 μM THCV, non-transfected Control for T567A): 0.182 and 0.253 and 0.199 and 0.236 | change in F340/F380 evoked by 10 mM Ca2+ ([1]; 10 μM THCV, non-transfected Control for F493A): 0.198 and 0.159 and 0.176 and 0.141 | change in F340/F380 evoked by 10 mM Ca2+ ([1]; 10 μM THCV, non-transfected Control for I564A): 0.116 and 0.124 and 0.114 and 0.113 | change in F340/F380 evoked by 10 mM Ca2+ ([1]; 10 μM THCV, non-transfected Control for M497A): 0.192 and 0.201 and 0.174 and 0.162 | change in F340/F380 evoked by 10 mM Ca2+ ([1]; 10 μM THCV, non-transfected Control for T567A): 0.167 and 0.205 and 0.218 and 0.162 | change in F340/F380 evoked by 10 mM Ca2+ ([1]; 30 μM THCV, non-transfected Control for F493A): 0.166 and 0.168 and 0.155 and 0.158 | change in F340/F380 evoked by 10 mM Ca2+ ([1]; 30 μM THCV, non-transfected Control for I564A): 0.119 and 0.146 and 0.122 | change in F340/F380 evoked by 10 mM Ca2+ ([1]; 30 μM THCV, non-transfected Control for M497A): 0.158 and 0.138 and 0.186 and 0.188 | change in F340/F380 evoked by 10 mM Ca2+ ([1]; 30 μM THCV, non-transfected Control for T567A): 0.196 and 0.203 and 0.177 and 0.230 | change in F340/F380 evoked by 10 mM Ca2+ ([1]; 100 μM THCV, non-transfected Control for A561W): 0.418 and 0.377 and 0.384 | change in F340/F380 evoked by 10 mM Ca2+ ([1]; 100 μM THCV, non-transfected Control for F493A): 0.445 and 0.433 and 0.368 and 0.380 | change in F340/F380 evoked by 10 mM Ca2+ ([1]; 100 μM THCV, non-transfected Control for I564A): 0.398 and 0.435 and 0.361 and 0.357 | change in F340/F380 evoked by 10 mM Ca2+ ([1]; 100 μM THCV, non-transfected Control for M497A): 0.411 and 0.568 and 0.505 and 0.392 | change in F340/F380 evoked by 10 mM Ca2+ ([1]; 100 μM THCV, non-transfected Control for T567A): 0.389 and 0.553 and 0.539 and 0.430
